No constants are given. Whether binding was seen depends on the method and setting. Some results given as binding are weak or reduced against the parent protein; the word gives no strength.

For this test, the target named is human CD98 (human). Description: hybridoma screening: ELISA on recombinant CD98-ECD and flow cytometry on CD98-expressing cells. (In general: In an ELISA, binding on a coated surface is turned into a signal by an enzyme label.)

B1: Ab1 (mouse anti-CD98 hybridoma mAb) (antibody, V domains shown)
VH: EVKLVESGGGLVQPGGSLRLSCATSGFTFTDYYMSWVRQPPGKALEWLGFIRNPANVYTTEYSASVKGRFTISRDNSQSILYLQMNTLRAEDSATYYCARASYGNSEGWFAYWGQGTLVTVSA
VL: DIVMSQSPSSLAVSVGEKVTMSCKSSQNLLYNNNQKNYLAWYQQKPGQSPKLLIYWASTRESGVPDRFTGSGSGTDFTLTISSVKAEDLAVYYCQQYYSYPRTFGGGTKLEIK
Regarding B1, the binding entry is “binds”.

B2: Ab3 (mouse anti-CD98 hybridoma mAb) (antibody, V domains shown)
VH: EVKLVESGGGLVQPGNSLRLSCATSGFTFIDYYMSWVRQSPGKALEWLGFIRNKANGYTTEYSASVKGRFTISRDNSQSILYLQMDTLRAEDSATYYCTRDRPAWFVYWGQGTLVTVSA
VL: DIVMSQSPSSLAVSVGEKVTMSCKSSQSLLYSSNQKNYLAWYQQKPGQSPKLLIYWASTRESGVPDRFTGSGSGTDFTLTFSSVRAEDLAVYYCQQYYSYPYTFGGGTKLEIK
Consider B2, for which the binding entry was “binds”.

B3: Ab5 (mouse anti-CD98 hybridoma mAb) (antibody, V domains shown)
VH: EVKLVESGGGLVQPGGSLRLSCATSGFTFTDYYMTWVRQPPGKALEWLGFIRNKANGYTTEYSASVKGRFTISRDNSLSILYLQMNTLRAEDSATYYCARASYVNSEGWFAYWGQGTLVTVSA
VL: DIVMSQSPSSLAVSVGEKVTMSCKSSQSLLYSSNQKNYLAWYQQKLGQSPKLLIYWASTRESGVPDRFTGSGSGTDFTLTISSVKAEDLAVYYCQHYYSYPRTFGGGTKLEIK
Take B3: the binding result is on record as “binds”.

B4: Ab6 (rat anti-CD98 hybridoma mAb) (antibody, V domains shown)
VH: QVQLKESGPGLAQPSQTLSLTCTVSGFSLSTYGVIWLRQPPGKGLEWMGVIWTNGNTNYNSTLKSRLSISRDTSESQVYLQMNSLQTEDTATYYCARHYYDGAYYYGYFDYWGQGVMVTVSS
VL: DIVMTQTPSSQAVSAGEKVTMSCKSSQSLLYSENKKNYLAWYQQKPGQSPKLLIYWASTRESGVPDRFIGSGSGTDFTLTISSVQAEDLAVYYCQQYYYFPYTFGAGTKLELK
As to B4, the binding entry was “binds”.

B5: Ab7 (rat anti-CD98 hybridoma mAb) (antibody, V domains shown)
VH: QVQLKESGPGLVQPSQTLSLTCTVSGFSLSTYGVIWVRQPPGKGLEWMGVIWANGNTNYNSTLKSRLSISRDTSKSQVYLKMNSLQTEDTATYYCARHYYDGTYYYGYFDYWGQGVMVTVSS
VL: DIVMTQTPSSQAVSAGEKVTMNCKSSQSLLYSENKKNYLAWYQQKPGQSPKLLIYWASTRESGVPDRFIGSGSGTDFTLTISSVQAEDLAVYYCQQYYYFPYTFGPGTKLELK
Turning to B5, the binding entry is listed as “binds”.

B6: Ab9 (rat anti-CD98 hybridoma mAb) (antibody, V domains shown)
VH: QVQLKESGPGLVQPSQTLSLTCAVSGFSLSNYGVIWVRQPPGKGLEWMAVIWTNGNTNYNSTLKSRLSISRDTSKSQVYLKMNSLQTEDTATYYCARHYYDGTYYYGYFDYWGQGVMVTVSS
VL: DIVMTQTPSSQAVSAGEKVTMSCKSSQSLLYTENKKNYLAWYQQKPGQSPKLLIYWASTRESGVPDRFMGSGSGTDFTLTISSVQAEDLAVYYCQQYYYFPYMFGAGTKLELK
Turning to B6, the binding entry was “binds”.

B7: Ab10 (rat anti-CD98 hybridoma mAb) (antibody, V domains shown)
VH: EVQLVESGGGLVQPGRSLKLSCAASGFTFSDYAMAWVRQAPKKSLEWVATIIYDGRGTYCRDSVKGRFTISRDNAKSTLYLQMDSLRSEDTATYYCARQGDGTYHYWGYFDYWGQGVMVTVSS
VL: DIVMTQSPSSLAVSAGETVTINCKSSQSLLSSGNQKNYLAWYQQKPGQSPKLLIYWASTRQSGVPDRFIGSGSGTDFTLTISSVQAEDLAIYYCQQYYDTPYTFGAGTKVDLK
Consider B7, for which the binding entry was “binds”.

B8: Ab11 (rat anti-CD98 hybridoma mAb) (antibody, V domains shown)
VH: EVQLVESGGGLVQPGRSLKLSCAASGFTFSDYAMAWVRQAPKKGLEWVAGIIYDGRGTYYRDSVKGRFTISRDNAKSTLYLQMDSLRSEDTATYYCARQGDGTYYYWGYFDYWGQGVMVTVSS
VL: DIVMTQSPSSLAVSAGETVTINCRSSQSLLSSGNQKNYLAWYQQKPGQSPKLLIYWASTRQSGVPDRFIGSGSGTDFTLTISSVQAEDLAIYYCQQYYDTPYTFGAGTKLELK
For B8, the binding entry is listed as “binds”.

B9: Ab15 (rat anti-CD98 hybridoma mAb) (antibody, V domains shown)
VH: EVQLVESGGGLVQPGRSLKLSCAASGFTFSDYTMAWVRQAPKKGLEWVATIIYDGRGTYYRDSVKGRFTISRDNAKSTLYLQMDSLRSEDTATYYCARQSDGTYYYWGYFDYWGQGVMVTVSS
VL: DIVMTQSPSSLAVSAGETVTINCKSSQSLLFSGNQKNYLAWYQQKPGQSPKLLIYWASTRQSGVPDRFIGSGSGTDFTLTIRSVQAEDLAIYYCQQYYDSPYTFGAGTKLELK
Consider B9, for which the binding result is given as “binds”.

The values above are taken from patent US20200121803A1.
